Results taken from patent US20040214767A1, “Regulation of follicular development and ovulation by cytoskeletal genes and gene products” (priority 2002, published 2004).
For at least one compound, name, drawing or mass did not settle the structure.

Tested on: rat primary granulosa cells
Assay: Effects of CHX and alpha-amanitin on FSH/forskolin-induced expression of cytoskeletal genes in granulosa cells
Type: cell-based
Settings: forskolin 10 microM vs FSH 30 ng/ml
Method: FIG. 8. Effects of CHX and alpha-amanitin treatment on the FSH/forskolin-induced expression of the cytoskeletal genes. Granulosa cells were isolated from the ovaries of 170 estradiol primed 24 day old immature rats. They were cultured in the medium containing FSH (30 ng/ml) or forskolin (10 microM, FSK) in the presence or absence of CHX (10 μg/ml) for 6 hours (A) or 24 hours (B). In addition, the 24 hours cells were also cultured, likewise, in the presence of alpha-amanitin (30 microg/ml, AMA). Total RNA was isolated and analyzed for mRNAs of TM4, Khc, beta-tubulin and inhibin alpha as described in the description of FIG. 7. Values are the meanfold increase over control (no treatment)±SE. Values were pooled from two separate experiments.
As a step to determine the mechanisms of the FSH-responsive mRNA expression, the granulosa cells were treated with FSH in the presence or absence of a translation inhibitor, CHX, and a transcription inhibitor, alpha amanitin.
Eighteen to twenty-one day old Sprague-Dawley female pups with nursing mothers were purchased from Harlan Breeding Company (Indianapolis, Ind.) and housed in a photoperiod of 14 h light/10 h darkness with light on at 0500 h. For in situ hybridization, rats were injected subcuteneoulsy with 15 IU PMSG (Sigma) in 0.1 ml PBS on 22-23 days of age. Depending on the experiments, PMSG 48 hours-primed rats were injected i.p. with 10 IU hCG. […]

Question: With `C=C[C@@]1(C)CC(=O)[C@]2(O)[C@@]3(C)[C@@H](O)CCC(C)(C)[C@@H]3[C@H](O)[C@H](OC(C)=O)[C@@]2(C)O1` [forskolin] as the compound, how does the “effects on cytoskeletal and inhibin alpha gene expression compared with FSH” value read?
Answer: the same
